Measured values published in PubChem BioAssay AID504834 (National Center for Advancing Translational Sciences (NCATS), 2011).
The whole screen tested about 320,000 compounds, of which about 22,000 (6.9%) were called active. Inconclusive means that the source gave no clear call. Such entries were picked first, then a sample of the others. The call rests on the fitted dose curve; in most records, active means well fitted inhibition curve with a large enough effect; inconclusive means small, poorly fitted or top-dose-only effect, or another doubt; inactive means no such curve, though single readings can be large or run the other way. Where the call is inconclusive, the potency comes from a doubtful curve fit.
On the % scale 0 is the no-effect control and ±100 the full control effect; potency means the concentration at half of the fitted maximal effect.

Assay: Primary qHTS for delayed death inhibitors of the malarial parasite plastid, 96 hour incubation
Conditions: P. falciparum luciferase reporter growth; series mostly up to 28.7 µM
Method in brief: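 Parasite growth measured via integrated firefly luciferase reporter in P. falciparum. Infected erythrocytes at 2% hematocrit, 0.05% parasitemia final were treated 96 hours at 37 C under 5% CO2, and luminescence was read.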
For `CC(C)(C)OC(=O)N1CCC[C@H]1C(=O)N/N=C/c1cccc2nccnc12`, the Potency was inconclusive: 10.4 µM [inhibitor, single point].
With `COc1cc2c(cc1OC)-c1cc(Nc3ccc(F)cc3)nc(=O)n1CC2` the Potency was active: 1.17 µM.
For `CC(C)c1ccc(Nc2ncccc2C(=O)O)cc1`, the Potency was “inactive”.
In the case of `CCOc1ccc(C(c2c(NC(=O)c3ccccc3)sc(C)c2C)N2CCN(CCO)CC2)cc1` (stereo not drawn), the Potency is reported as active: 5.22 µM.
For `Cc1ccc(NC(=O)C2CCN(S(=O)(=O)c3cccs3)CC2)cc1`, the Potency was inconclusive: 18.5 µM [inhibitor, single point].
With `COc1ccc(CN=C2NN=C(c3ccc(Cl)cc3)CS2)cc1` the Potency was inconclusive: 18.5 µM [inhibitor, single point].
In the case of `CC1CCCCN1CCCNc1ccc(C(CC(N)=O)NC(=O)Cc2ccc(Br)cc2)cc1[N+](=O)[O-]` (stereo not drawn), the Potency is reported as inconclusive: 18.5 µM [inhibitor, single point].
In the case of `CCN(CC(=O)Nc1ccc(NC(C)=O)cc1)C(=O)/C=C/c1cn(-c2ccccc2)nc1-c1ccc(C)cc1`, the Potency is reported as inconclusive: 8.28 µM [inhibitor, partial curve].
In the case of `COc1ccccc1/C=C1\SC(=S)N(CCC(=O)NCCCn2ccnc2)C1=O`, the Potency is reported as inconclusive: 16.5 µM [inhibitor, single point].
In the case of `COc1cc(/C=C/C(=O)OCC(=O)Nc2cc(C(F)(F)F)ccc2N2CCOCC2)ccc1O`, the Potency is reported as inconclusive: 14.7 µM [inhibitor, single point].
For `O=C(COc1cccc(C(F)(F)F)c1)Nc1ccc2[nH]ncc2c1`, the Potency was inconclusive: 18.5 µM [inhibitor, single point].
In the case of `COc1ccccc1-c1oc2ccccc2c1-c1ccc2c(c1)OCO2`, the Potency is reported as inconclusive: 9.28 µM [inhibitor, partial curve].
With `COC(=O)C1CCN(Cc2c(C(=O)N3C[C@@H](C)O[C@@H](C)C3)nc3ccc(Cl)cn23)CC1` the Potency was inconclusive: 11.7 µM [inhibitor, single point].
With `CC(=O)Oc1cccc(N2C(=O)c3ccc(C(=O)Nc4c[nH]c(=O)[nH]c4=O)cc3C2=O)c1` the Potency was inconclusive: 1.65 µM [inhibitor, full curve].
In the case of `COCCN(C(=O)COC(=O)c1ccccc1NCc1ccco1)c1c(N)n(Cc2ccccc2)c(=O)[nH]c1=O`, the Potency is reported as inconclusive: 14.7 µM [inhibitor, partial curve, poor fit].
With `COc1ccc(N=C2NC(=O)/C(=C\C=C\c3ccco3)S2)cc1` the Potency was inconclusive: 14.7 µM [inhibitor, partial curve, poor fit].
With `O=C(NCC1CCCO1)C(Cc1ccccc1)N1C(=O)C2C3C=CC(C4CC34)C2C1=O` (stereo not drawn) the Potency was inconclusive: 4.15 µM [inhibitor, partial curve, poor fit].
With `Cc1ccccc1C(=O)NNC(=O)C12CC3CC(CC(C3)C1)C2` the Potency was inconclusive: 2.33 µM [inhibitor, full curve, poor fit].
With `CCc1ccc(OCC(=O)NNC(=O)C2CCC2)cc1` the Potency was inconclusive: 3.7 µM [inhibitor, single point].
With `COc1ccc(S(N)(=O)=O)cc1C(=O)NCCCN1CCN(c2ccc(C)cc2)CC1` the Potency was inconclusive: 11.7 µM [inhibitor, single point].
With `Cc1cccc(OCC(=O)Nc2ccc(N3CCN(C(=O)c4ccco4)CC3)cc2)c1C` the Potency was inconclusive: 1.65 µM [inhibitor, full curve].
In the case of `COc1ccc(-c2nc(CSCC(=O)N3CCN(c4cccc(C)c4)C(C)C3)c(C)o2)cc1OC` (stereo not drawn), the Potency is reported as inconclusive: 11.7 µM [inhibitor, partial curve, poor fit].
With `COc1cccc(C(C(=O)NC(C)(C)C)N(C(=O)CCC(=O)Nc2cc(C)on2)C(C)C)c1OC` (stereo not drawn) the Potency was inconclusive: 14.7 µM [inhibitor, single point].
In the case of `O=C(Nc1c(C(=O)N2CCC(N3CCCCC3)CC2)oc2ccccc12)c1ccc(F)cc1`, the Potency is reported as inconclusive: 0.0033 µM [inhibitor, full curve, poor fit].
With `Cc1cccc(/C(N)=N/OC(=O)C23CC4CC(CC(C4)C2)C3)c1` the Potency was inconclusive: 11.7 µM [inhibitor, single point].
In the case of `O=C(Nc1ccc(Br)cc1)c1ccc(F)c(S(=O)(=O)N2CCN(c3ccccn3)CC2)c1`, the Potency is reported as “inactive”.
With `CCN1c2ccccc2-c2nc3ccccc3n2C1c1ccco1` (stereo not drawn) the Potency was active: 4.65 µM.
For `CC(Sc1nc(N)cc(=O)[nH]1)C(=O)N1CCOCC1` (stereo not drawn), the Potency was “inactive”.
In the case of `CCOC(=O)c1c(S(=O)(=O)NCCc2ccco2)c(C)n(C)c1C`, the Potency is reported as “inactive”.
With `CCOC(=O)CNC(c1ccccc1)c1cc(Br)ccc1NC(=O)OCC` (stereo not drawn) the Potency was inconclusive: 9.28 µM [inhibitor, partial curve].
With `CC(C)CCn1c(SCC(=O)OCn2nnc3ccccc3c2=O)nc2ccccc2c1=O` the Potency was “inactive”.
With `O=C(OCN1C(=O)c2ccccc2C1=O)c1cc(S(=O)(=O)N2CCOCC2)ccc1F` the Potency was “inactive”.
For `CCC(C(=O)NC1CCCC1)N(C(=O)Cn1nnc(-c2ccc(C)o2)n1)c1cnc2ccccc2c1` (stereo not drawn), the Potency was inconclusive: 3.29 µM [inhibitor, partial curve].
For `O=C(COC(=O)c1ccccc1O)Nc1cc([N+](=O)[O-])ccc1Cl`, the Potency was “inactive”.
For `Cc1cccc(NC(=O)c2ccc(CN3CCN(Cc4ccccc4)CC3)cc2)c1`, the Potency was “inactive”.
In the case of `COc1ccc(/C=C2\SC(=S)N(CCC(=O)N3CCCCC3)C2=O)cc1`, the Potency is reported as “inactive”.
For `Cc1cccc(OCCC(=O)OCc2csc(CC(=O)Nc3ccccc3C)n2)c1`, the Potency was “inactive”.
For `CC(C)(C)NC(=O)C(c1ccco1)N(C(=O)Cn1nnc(-c2ccc(F)cc2)n1)c1cccc(F)c1` (stereo not drawn), the activity change, negative = inhibition was inactive: -2.93% [at 5.75 µM].
With `CN(C)CCCNC(=O)c1cc(C(=O)Cc2ccc(Cl)cc2)c[nH]1` the Potency was inconclusive: 18.5 µM [inhibitor, single point].
With `CCCCn1c(N)c(N(CC(C)C)C(=O)CSC(C)C(=O)Nc2cc(C)on2)c(=O)[nH]c1=O` (stereo not drawn) the Potency was inconclusive: 10.4 µM [inhibitor, partial curve, poor fit].
In the case of `CCc1ccc(-c2cc(C(F)(F)F)n3nc(C(=O)Nc4cnn(Cc5ccccc5C)c4)cc3n2)s1`, the Potency is reported as inconclusive: 7.38 µM [inhibitor, partial curve, poor fit].
For `Cc1c(Cl)c([N+](=O)[O-])nn1CC(=O)N1CCN(Cc2ccccc2)CC1`, the Potency was “inactive”.
In the case of `COc1ccc(C)cc1S(=O)(=O)N(CC(=O)Nc1cccc([N+](=O)[O-])c1)c1ccc(C)cc1`, the Potency is reported as active: 11.7 µM.
With `O=C(Nc1nnc(SCC(=O)N2CCOCC2)s1)C1CC(=O)N(c2ccc(F)cc2)C1` (stereo not drawn) the Potency was inconclusive: 20.8 µM [inhibitor, partial curve, poor fit].
With `CCCCCc1nc2ccccc2c(=O)n1-c1ccccc1[N+](=O)[O-]` the Potency was inconclusive: 18.5 µM [inhibitor, single point].
In the case of `CC(NC(=O)C1CCCN1S(=O)(=O)c1cccc2cccnc12)c1ccccc1` (stereo not drawn), the Potency is reported as inconclusive: 13.1 µM [inhibitor, partial curve, poor fit].
For `Cn1nccc1CNC(=O)c1ccnn1C`, the Potency was inconclusive: 18.5 µM [inhibitor, single point].
With `CC(Sc1ccc2c(c1)OCCO2)C(=O)Nc1ccc(N2CCOCC2)cc1` (stereo not drawn) the activity change, negative = inhibition was inactive: 94.7% [at 5.75 µM].
With `Cc1ccc(N(C)S(=O)(=O)c2ccc(-c3cnc(C4CC4)o3)cc2)cc1` the Potency was inconclusive: 10.4 µM [inhibitor, single point].
With `C#CCOCCOCCOCCNc1nc(N2CCN(C(=O)CCCCCCCCCCNC(=O)[C@H](CCCCN)n3cc(CCO)nn3)CC2)nc(N2CCN(C(=O)CCCCCCCCCCNC(=O)[C@H](CCCCN)n3cc(CCCC(=O)O)nn3)CC2)n1` the Potency was inconclusive: 13.1 µM [inhibitor, partial curve, poor fit].
For `C/C(CC(=O)Nc1cccc(C(F)(F)F)c1)=N/NC(=O)C(=O)NCCO`, the Potency was “inactive”.
In the case of `O=C(O)c1ccc[nH]c1=S`, the Potency is reported as “inactive”.
For `C[C@@]12C(=O)Nc3ccc(Br)cc3C(=O)N1[C@H]1c3cc(Br)ccc3OC[C@@H]1[C@@H]2c1ccccc1`, the Potency was active: 3.29 µM.
With `COc1ccc(N(C)S(=O)(=O)c2cccc(C(=O)Nc3ccc(OC)nc3)c2)cc1` the Potency was inconclusive: 13.1 µM [inhibitor, single point].
For `CC1CCCCN1C(=O)CN1CCN(S(=O)(=O)c2ccc(Br)cc2Cl)CC1` (stereo not drawn), the Potency was inconclusive: 10.4 µM [inhibitor, single point].
With `CCCN(CC1CC1)S(=O)(=O)c1ccc(-n2cnnn2)c(OC)c1` the Potency was inconclusive: 8.28 µM [inhibitor, single point].
In the case of `COc1ccc(C(=O)NCC(=O)OCC(=O)Nc2ncc(Cl)cc2Cl)cc1[N+](=O)[O-]`, the Potency is reported as inconclusive: 3.29 µM [inhibitor, partial curve, poor fit].
For `CCCN(CC(=O)Nc1ccccc1C)C(=O)c1ccc(=O)n(Cc2ccccc2)n1`, the Potency was inconclusive: 18.5 µM [inhibitor, single point].
In the case of `Cc1nc([N+](=O)[O-])c(Sc2nc3ccc([N+](=O)[O-])cc3[nH]2)n1Cc1ccccc1`, the Potency is reported as inconclusive: 18.5 µM [inhibitor, single point].
In the case of `CC(NC(=O)COC(=O)c1cccs1)c1ccccc1` (stereo not drawn), the Potency is reported as “inactive”.
In the case of `O=C(Nc1nnc(-c2ccccn2)o1)c1cccc(Br)c1`, the Potency is reported as inconclusive: 11.7 µM [inhibitor, single point].
For `Nn1c(SCC(=O)Nc2ccc(N3CCOCC3)cc2)nnc1-c1cccc(F)c1`, the Potency was “inactive”.
In the case of `COCCN(C(=S)Nc1ccccc1C)C(C)c1cccs1` (stereo not drawn), the Potency is reported as “inactive”.
